# Experimental data: paper PMC12871924, “Human FASTK preferentially binds single‐stranded and G‐rich RNA”
# Tests used:
# [1] = biological target: T1, FASTK∆N1-75 del1-75 (Homo sapiens) (UniProt Q14296); assay: MST; conditions: MST: 1x PBS, 5% glycerol, 1 mM DTT, Tween-20 (0.05% in RNA stock), 20 nM RNA, 22 °C, RNA annealed in 50 mM Tris/HCl pH 7.5, 50 mM KCl (or LiCl), 50 mM NaCl, recombinant protein, residues 76-549, protein details: His6-SUMO cleaved
# T1 sequence (looked up): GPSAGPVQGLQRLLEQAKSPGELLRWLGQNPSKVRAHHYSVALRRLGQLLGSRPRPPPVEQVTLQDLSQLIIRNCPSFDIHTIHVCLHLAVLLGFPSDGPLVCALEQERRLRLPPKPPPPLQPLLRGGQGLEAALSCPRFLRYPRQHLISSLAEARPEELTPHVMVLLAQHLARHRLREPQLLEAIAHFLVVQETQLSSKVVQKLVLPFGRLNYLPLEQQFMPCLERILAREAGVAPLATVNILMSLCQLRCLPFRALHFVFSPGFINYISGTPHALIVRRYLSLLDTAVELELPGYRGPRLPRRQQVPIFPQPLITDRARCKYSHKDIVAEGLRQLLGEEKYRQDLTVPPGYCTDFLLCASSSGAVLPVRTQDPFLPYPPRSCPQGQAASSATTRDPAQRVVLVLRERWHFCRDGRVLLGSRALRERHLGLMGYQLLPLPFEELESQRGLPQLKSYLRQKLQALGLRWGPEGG
# [2] = biological target: T2, FASTK∆N1-75 K275/K279/R286 mutant K275M,K279M,R286A,del1-75 (Homo sapiens) (UniProt Q14296); assay: MST; conditions: MST: 1x PBS, 5% glycerol, 1 mM DTT, Tween-20 (0.05% in RNA stock), 20 nM RNA, 22 °C; RNA annealed in 50 mM Tris/HCl pH 7.5, 50 mM KCl (or LiCl), 50 mM NaCl; recombinant protein; residues 76-549; protein details: His6-SUMO cleaved; label: Cy5 body (CTP or UTP), 5' 32P in footprinting
# T2 sequence (looked up): T1 sequence (looked up) with K200M, K204M, R211A
# [3] = Kd higher than oligos 5 and 10, label: Cy5 body (CTP or UTP)
# [4] = range for ds and loop RNAs, label: Cy5
# [5] = ssRNA range 2.7-10.3 nM, own value only in figure, label: Cy5
# [6] = 100 mM Li+, no Na+, weaker than in K+, label: Cy5
sequence,measurement,setting,value
GAGGGGCAGGUUUUGGCUCGUAAGAAGGCCUAGAUAGGGGAUUGUGCGGUGUGUGAUGCUAGGGUAGAAUCCGAGUAUGUUGGAGAAAUAAAAUGUGCAUAGUGGGGAUUUUAUUUUAAGUUUGU [ND6 oligo 8],binding result,[1]; [3],binds more weakly
GAGGGGUCAGGGUUGAUUCGGGAGGAUCCUAUUGGUGCGGGGGCUUUGUAUGAUUAUGGGCGUUGAUUAGUAGUAGUUACUGGUUGAACAUUGUUUGUUGGUGUAUAUAUUGUAAUUGAGAUUGC [ND6 oligo 5],binding result,[2],binds more weakly
GAUCCGGGAGGACCC / GGGUCUGUGGGGUC [internal loop],binding result,[1]; [4],binds more weakly
GAUGAUGUAUGCUUUGUUUCUGUUGAGUGUGGGUUUAGUAAUGGGGUUUGUGGGGUUUUCUUCUAAGCCUUCUCCUAUUUAUGGGGGUUUAGUAUUGAUUGUUAGCGGUGUGG [ND6 oligo 1],binding result,[1]; [3],binds more weakly
GGAUGGUUGUCUUUGGAUAUACUACAGCGAUGGCUAUUGAGGAGUAUCCUGAGGCAUGGGGGUCAGGGGUUGAGGUCUUGGUGAGUGUUUUAGUGGGGUUAGCGAUGGAGGUAGGAUUGGUGCUG [ND6 oligo 3],binding result,[1]; [3],binds more weakly
GGCGAUGGAGGUAGGAUUGGUGCUGUGGGUGAAAGAGUAUGAUGGGGUGGUGGUUGUGGUAAACUUUAAUAGUGUAGGAAGCUGAAUAAUUUAUGAAGGAGAGGGGUCAGGGUUGAUUCGGGAGG [ND6 oligo 4],binding result,[1]; [3],binds more weakly
GGUGGGGAUUUUAUUUUAAGUUUGUUGGUUAGGUAGUUGAGGUCUAGGGCUGUUAGAAGUCCUAGGAAAGUGACAGCGAGGGCUGUGAGUUUUAGGUAGAGGGGGAUUGUUGUUUGGAAGGGGGA [ND6 oligo 9],binding result,[1]; [3],binds more weakly
GUAGUAUUGAUUGUUAGCGGUGUGGUCGGGUGUGUUAUUAUUCUGAAUUUUGGGGGAGGUUAUAUGGGUUUAAUAGUUUUUUUAAUUUAUUUAGGGGGAAUGAUGGUUGUCUUUGGAUAUACUAC [ND6 oligo 2],binding result,[1]; [3],binds more weakly
GUAUGCCUUUUUGGGUUGAGGUGAUGAUGGAGGUGGAGAUUUGGUGCUGUGAAAUUGUUUUAGGUAAUAGCUUUUCUAGUCAGGUUAGGUCUAGGAGGAGUAGGGGCAGGUUUUGGCUCGUAAGA [ND6 oligo 7],binding result,[1]; [3],binds more weakly
GUCUCUGCAGUAGUUA / UAACUACUGCAGAGAC [dsRNA (ssRNA1+ssRNA2)],binding result,[1]; [4],binds more weakly
GUCUCUGCAGUAGUUA [ssRNA1],Kd,[1]; [5],< 0.0103 µM
GUGUAUAUAUUGUAAUUGAGAUUGCUCGGGGGAAUAGGUUAUGUGAUUAGGAGUAGGGUUAGGAUGAGUGGGAAGAAGAAAGAGAGGAAGUAAAGUUUAAUUAUGCCUUUUUGGGUUGAGGUGAU [ND6 oligo 6],binding result,[1]; [3],binds more weakly
UAACUACUGCAGAGAC [ssRNA2],Kd,[1]; [5],< 0.0103 µM
UGGGUCAUUGAUGAUGAUCCA [stem loop],binding result,[1]; [4],binds more weakly
UUACCCUUACCCUUACCCUUACCC [TERRA C-rich mutant],binding result,[1]; [6],binds more weakly
same,Kd,"[1]; K+ annealed, label: Cy5",0.0328 µM
same,binding result,"[1]; Li+ annealed, Na+ present, Kd unchanged, label: Cy5",binds more weakly
UUAGAGUUAGUGUUAGAGUUAGUG [TERRA AU-rich mutant],binding result,[1]; [6],binds more weakly
UUAGGGUUAGGGUUAGGGUUAGGG [TERRA],binding result,[1]; [6],binds more weakly

# Where a chain is given by its changes, count along the chain named. Weaker means in comparison with the reference protein, sequence or condition of that experiment. Tags and fusion partners may be left off the protein sequences shown. For some of these results: Construct, isoform or probe ends are uncertain for at least one entry. For some of these results: At least one verdict was read from the data and is not stated in words by the source.
